Source: ChEMBL document CHEMBL3988442, “University of Dundee, Small-Polar-MMV Screening Library” (2021).

By UniProt entry, the sequences of proteins in these tests, tags left out.
UniProt E9BF75, entry or part of it: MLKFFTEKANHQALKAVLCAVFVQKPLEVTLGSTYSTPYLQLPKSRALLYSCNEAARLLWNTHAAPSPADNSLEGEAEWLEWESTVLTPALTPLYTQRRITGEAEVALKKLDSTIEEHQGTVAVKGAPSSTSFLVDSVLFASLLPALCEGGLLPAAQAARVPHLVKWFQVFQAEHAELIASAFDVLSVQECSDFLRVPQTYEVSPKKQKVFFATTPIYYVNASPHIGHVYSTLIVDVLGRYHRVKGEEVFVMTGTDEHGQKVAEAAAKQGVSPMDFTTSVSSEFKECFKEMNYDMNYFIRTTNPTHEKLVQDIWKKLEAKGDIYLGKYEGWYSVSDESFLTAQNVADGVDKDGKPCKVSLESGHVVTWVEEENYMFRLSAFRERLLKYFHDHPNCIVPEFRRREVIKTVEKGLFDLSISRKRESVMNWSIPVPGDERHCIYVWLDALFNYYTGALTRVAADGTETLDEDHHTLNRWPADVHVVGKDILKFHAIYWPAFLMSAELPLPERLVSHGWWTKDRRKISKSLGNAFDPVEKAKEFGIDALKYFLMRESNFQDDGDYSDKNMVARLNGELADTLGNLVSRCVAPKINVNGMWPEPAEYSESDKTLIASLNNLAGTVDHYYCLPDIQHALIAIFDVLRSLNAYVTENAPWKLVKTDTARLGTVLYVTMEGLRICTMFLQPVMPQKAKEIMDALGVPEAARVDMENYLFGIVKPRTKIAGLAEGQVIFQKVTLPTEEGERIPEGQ

All values are in %. How 0% and 100% were set is not recorded. Most values in the screen are low, and negative values occur. Compounds were drawn at random from those tested, without regard to their results. A dash means the value is not listed here; it may have been measured.

LdMetRS: 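Primary screen of methionyl-tRNA synthetase; the read-out is not stated. Target: Methionyl-tRNA synthetase (putative), Leishmania donovani (UniProt E9BF75). The test concentration is not given. The values are filed as inhibition. About 68,000 compounds were tested under these conditions; 0.035% (about 24) showed 50% or more at least once.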
Mtb heat-shock: 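Assay on Mycobacterium tuberculosis, filed only as a heat shock assay from Cornell; the read-out is not stated. The concentration is filed as 10 mM, unlikely as a test dose, so the dose is not known. The record gives no direction; compounds that gave an IC50 in retests scored well above the rest, so higher reads as stronger inhibition. Of about 69,000 compounds tested this way, about 930 (1.4%) reached 50% or more in at least one test.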

Compound | LdMetRS | Mtb heat-shock
O=c1c2cn[nH]c2nc(SCCN2CCCC2)n1-c1ccccc1 | 17.89 | -7.859
Cc1nc(N2CCOCC2)nc2c1COCC21CCN(CC2CC2)C1.O=C(O)C(F)(F)F (stereo not drawn) | - | -19.59
[H][C@]12CC[C@]([H])(CN(Cc3cccnc3)C1)N(C(=O)CSc1ccncc1)C2 | - | 13.5
COCCCS(=O)(=O)N1CCN(C(C)(C)CO)CC1 | 10 | 11.76
CC(=O)N(Cc1noc(C)n1)C1CCN(Cc2ccon2)C1 (stereo not drawn) | 2.778 | -10.63
Cc1nn(C(=O)c2cccnc2)c(C)c1C | -0.6623 | -36.05
COCC(=O)NCc1cc(=O)n2c(n1)CN(Cc1ccco1)CCC2 | 10.34 | 19.95
COCCN1CCN(C(=O)NC2CC2)Cc2ccc(C)nc21 | 14.07 | -
[H][C@]12CC[C@]([H])(CN(S(=O)(=O)c3cn(C)cn3)C1)N(Cc1ccccn1)C2 | - | 7.06
Cl.Cn1cc(CN(Cc2ccccc2)Cc2ccccn2)cn1 | - | -0.9599
COCCN1CCC2(CCCN(c3ncc(F)cn3)C2)C1 (stereo not drawn) | 16.29 | -58.72
CC(C)N1CCC(Nc2ccn(C)n2)C1=O (stereo not drawn) | 12.89 | -11.33
O=C(C1CC=CC1)N1CCC2(CCN(Cc3cccc(F)c3)CC2)C1 | 16.61 | -23.61
Cn1cc(CNCCc2nccs2)c(-c2cccnc2)n1 | 3.621 | -11.39
O=C(O)C(F)(F)F.[H][C@]12CCC[C@@]1(COCc1ccncc1)CN(C(=O)c1occc1C)C2 | - | 11.55
Cc1nc(Nc2ncccn2)cc(C2CCCN2Cc2ncc[nH]2)n1 (stereo not drawn) | 11.86 | 0.5861
COc1cc(CC2CC(C(N)=O)=NO2)cc2c1OCO2 (stereo not drawn) | 16.52 | 10.06
CNc1cncc(C2CCCN2c2cc(C)ncn2)n1 (stereo not drawn) | -1.942 | -20.07
CC(c1nc(C2CC2)no1)N1CCN(Cc2cccc(F)c2F)CC1 (stereo not drawn) | 12.53 | 0.6722
Cc1ccc(C)c(C(C(=O)O)N2CCCN(Cc3ccccn3)CC2)c1 (stereo not drawn) | 9.63 | 6.165
CC(C)c1nc(CN2CCC(c3ccnn3CCO)CC2)no1 | 4.819 | -40.76
O=C(NC1CCCCC1)N1C[C@H]2CN(c3cnccn3)C[C@@]2(C(=O)O)C1 | 8.157 | -
CS(=O)(=O)N1CCC[C@H]1c1ncnn1-c1ccc2c(c1)OCO2 | 5.108 | -4.922
CCOc1ccc2ccccc2c1CNCC1CCNCC1 | 3.015 | -
N#CCCCS(=O)(=O)NC1(c2cccc(Cl)c2)CC1 | 19.11 | -7.834
COCCN(Cc1ccco1)Cc1nc(-c2ccccc2C)no1 | 8.901 | -2.771
CC(NC(=O)c1cn(CCC2CCCCC2)nn1)c1cnn(C)c1 (stereo not drawn) | 4.29 | -8.749
CCOc1cc(CN[C@@H]2COC[C@H]2Cc2cc(C)no2)ccc1O | 11.65 | -
Cc1nc(N2CCCC(C)C2)nc2cc(S(C)(=O)=O)ccc12 (stereo not drawn) | 6.72 | 5.229
O=C(O)C(F)(F)F.[H][C@]12CN(c3ncccn3)C[C@@]1(C(=O)N(C)C)CCCN(S(=O)(=O)CC)C2 | - | -9.618
CCOc1cccc(C2CC(=O)NCc3nc(N)sc32)c1 (stereo not drawn) | 12.1 | 0.249
COc1ccc(CC(=O)N2CCCCC2Cn2cccn2)cc1 (stereo not drawn) | 11.6 | -1.572
CN(C)CCN1CCCC12CCN(C(=O)c1ccoc1)CC2 | 10.58 | -
CC(C)(C)NC(=O)C1(Cc2ccccc2-c2ccncc2)CCOCC1 | -3.871 | 5.325
CN(C)[C@@H]1CN(C(=O)c2ccc3ccccc3n2)C[C@H]1O | 16.13 | 6.533
Cn1nnc2c(N3CC(C(=O)NCc4cccs4)C3)ncnc21 | 17.75 | 18.92
COc1c(CNC2CCOc3c(Cl)cccc32)c(C)nn1C.Cl (stereo not drawn) | - | -6.176
COCC(=O)NC1CCN(c2cccc(OC(F)(F)F)c2)C1=O (stereo not drawn) | 17.51 | 16.37
CC(NC(=O)CCN1CCOC1=O)(c1ccccc1)c1ccccc1 | 17.69 | -14.25
CC1CCN(c2nc(O)cc(C3CC(=O)N(C4CCCCC4)C3)n2)CC1 (stereo not drawn) | 14.33 | -0.7051
O=C(CCc1cc(O)no1)N1CCCC(COc2ccc(F)cc2)C1 (stereo not drawn) | 15.93 | -14.1
Cc1ccsc1CCNC(=O)C1(Oc2cccnc2C)CCNCC1 | 7.117 | 12.81
Cc1cnn(CC2CCN(CC(O)c3ccc(F)cc3)CC2)c1 (stereo not drawn) | 15.32 | -19.44
Cc1noc(C)c1CNC(C(=O)N1CCOCC1)C(C)C (stereo not drawn) | 10.14 | 0.272
CCS(=O)(=O)c1ccc(NCc2csc(C(C)C)n2)cc1 | 9.192 | -18.11
Cc1ccc(N2C[C@H](C(=O)N3CCOCC3)[C@@H]3CCO[C@@H]3C2)nn1 | 21.9 | -
Cc1cccc(CN2CCOC3(COCCN(CCN(C)C)C3)C2)n1.O=C(O)C(F)(F)F.O=C(O)C(F)(F)F.O=C(O)C(F)(F)F (stereo not drawn) | - | -4.9
Cc1ccc(CN2C[C@@H](OCc3ccccn3)[C@H]3COC[C@H]32)o1 | 10.85 | -
CNS(=O)(=O)c1csc(C(=O)N(C)Cc2ccccc2C)c1 | -5.398 | 4.069
O=C(O)C(F)(F)F.[H][C@@]12OCCN(S(=O)(=O)CC)[C@@]1([H])CC[C@H]2Oc1ncccc1F | - | -25.31
COc1ccc(C(=O)NS(=O)(=O)c2cncc(Br)c2)c(OC)c1 | 4.569 | 1.886
CCc1cnc(CNC(=O)NC2CCN(C3CCCC3)CC2)s1 | 11.2 | -23.75
O=C1CC(N(C(=O)c2ccc(Oc3ccccc3)cc2)C2CC2)C(=O)N1 (stereo not drawn) | 14.4 | 0.309
[H][C@@]12CN(C(=O)c3ccsc3)C[C@]1([H])C(=O)N(Cc1cccc(C)c1)C2 | - | 9
O=c1n(CCSCc2ccccc2F)nc2ccccn12 | 18.06 | -5.082
COCCNC(=O)c1cnc(N(C)C)nc1C | 12.66 | 9.632
CCn1ncc2c1C(COCC1CC1)N(Cc1cnn(C)c1)CC2 (stereo not drawn) | 13.59 | -
Cc1ccc2cc(C(=O)N3CCCCC3c3nc[nH]n3)ccc2n1 (stereo not drawn) | 6.183 | -12.8
CCS(=O)(=O)N1CCC(NC(=O)c2cc(C(C)C)ccc2O)CC1 | 18.2 | 1.536
O=C1CC2(CCCCC2)C(=O)N1CC(O)COCc1ccccc1F (stereo not drawn) | 13.86 | 3.594
CCN(CC)c1ccc2ccc(C(=O)NC3CC3)cn12 | 45.65 | 35.75
Cc1cc(CN2CCC(C3CCN(CCc4ccccc4)CC3)C2)[nH]n1 (stereo not drawn) | 31.72 | -102
CCn1ccc(C(=O)N2CCOC(c3nc(-c4cccs4)no3)C2)n1 (stereo not drawn) | 11.53 | -9.898
CCC1c2ccccc2CCN1CCNS(C)(=O)=O (stereo not drawn) | 14.8 | 21.75
CN(Cc1nc2ccccc2o1)C1CCCN(c2cccnn2)C1 (stereo not drawn) | 13.25 | -6.375

Once more, the final 5:

Compound	LdMetRS	Mtb heat-shock
CCN(CC)c1ccc2ccc(C(=O)NC3CC3)cn12	45.65	35.75
Cc1cc(CN2CCC(C3CCN(CCc4ccccc4)CC3)C2)[nH]n1 (stereo not drawn)	31.72	-102
CCn1ccc(C(=O)N2CCOC(c3nc(-c4cccs4)no3)C2)n1 (stereo not drawn)	11.53	-9.898
CCC1c2ccccc2CCN1CCNS(C)(=O)=O (stereo not drawn)	14.8	21.75
CN(Cc1nc2ccccc2o1)C1CCCN(c2cccnn2)C1 (stereo not drawn)	13.25	-6.375